Data on one substance can be found in patent publication US8153142B2, “Skin treatment composition” (Shiseido Co., Ltd., priority 2001, dated 2012).

The data set deals with human skin. As to the kind of experiment: Evaluation No.(6): Compatibility with Skin. Format: in vivo. As to conditions: basic composition B.

In the case of “Polyoxyethylene (10) polyoxypropylene (10) dimethyl ether [Compound 2]”, the “Compatibility (6)” value was “⊚ (Not less than 8 special panelists recognized that the compatibility with skin during use was good.)” (Table 12, tested compound 5.0 wt %); “⊚ (Not less than 8 special panelists recognized that the compatibility with skin during use was good.)” (Table 13, Y/X study); “⊚ (Not less than 8 special panelists recognized that the compatibility with skin during use was good.)” (Table 14, tested compound 5.0 wt %).
